Reference: PMC6265261
No constants are given. Whether binding was seen depends on the method and setting. For some assays here: In cells and extracts the contact can be indirect. Some binding calls cover weakened binding; strength is not graded here. Tags and fused reporters may be left off the sequences shown.

Amino acid sequences for entries named in this document (tags omitted). A change or cut given only in a name is not applied to a line headed by its entry. Residues count along the entry.
UniProt P03107: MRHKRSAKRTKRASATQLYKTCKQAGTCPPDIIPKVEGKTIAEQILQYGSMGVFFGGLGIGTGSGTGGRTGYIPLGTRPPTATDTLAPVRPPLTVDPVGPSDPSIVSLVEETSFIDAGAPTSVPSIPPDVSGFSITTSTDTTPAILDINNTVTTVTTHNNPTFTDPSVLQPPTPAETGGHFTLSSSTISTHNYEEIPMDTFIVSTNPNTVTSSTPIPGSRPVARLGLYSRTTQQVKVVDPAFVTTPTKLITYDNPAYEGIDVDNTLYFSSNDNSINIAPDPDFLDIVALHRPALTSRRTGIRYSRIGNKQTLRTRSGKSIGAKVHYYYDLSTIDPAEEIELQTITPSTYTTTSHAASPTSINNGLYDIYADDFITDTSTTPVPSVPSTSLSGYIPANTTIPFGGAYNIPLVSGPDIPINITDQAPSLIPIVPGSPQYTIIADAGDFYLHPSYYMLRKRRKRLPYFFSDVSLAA
LexA-L2 280-473 fusion construct (HPV16 minor capsid protein L2, residues 280-473): residues 280-473 of P03107

Legend:
[1] = molecular target: LexA-L2 280-473 fusion construct (HPV16 minor capsid protein L2, residues 280-473) (human papillomavirus type 16) (UniProt P03107); test: two-hybrid; yeast strain L40; bait LexA-L2 280-473, prey B42-HA-MYPOP; growth without histidine (-His) reports bait-prey interaction
[2] = molecular target: HPV16 L2 (minor capsid protein L2) (human papillomavirus type 16) (UniProt P03107); test: co-IP; HaCaT cells co-transfected with HPV16 L2 and FLAG-tagged MYPOP; immune complexes precipitated and detected with a FLAG or L2 antibody

Row | Binder | binding [1] | binding [2]
1 | B42-HA-MYPOP (Myb-related transcription factor, partner of profilin) (protein, UniProt Q86VE0 1-399) MASAAAGEAEETTRLRKPRFSFEENQILIREVRAHYPQLYGAQSRRVSVAERRRVWDGIAAKINGITSWKRTGQEVQKRWNDFKRRTKEKLARVPHSTQGAGPAAEDAFSAEEETIFAILGPGVAAPGAGAGAEEPPAAPSSQPPPPSACPQRYVLSEDRREDRRADTSAHSKAGSSSPEPWARPSCTPQEGGCPRPKERESPPPSALQPVQLPRLALSPPPPAPPLPPPPPLAQVAPSPPSPPPPPRPPPTLSASDPSLDFLRAQQETANAIRELAGTLRQGLAKLSEALSALLPLLPGTPVDSLPPPLPPPPPPPPPPRPVLPPPAPKVEITPEPVSVVAAVVDGAVVAARGVIIAPRSEEGAPRPPPAPLPPHDSPPHKRRKGFPTRKRRGRWKSP | binds | 
2 | FLAG-tagged MYPOP (Myb-related transcription factor, partner of profilin) (protein, UniProt Q86VE0 1-399) MASAAAGEAEETTRLRKPRFSFEENQILIREVRAHYPQLYGAQSRRVSVAERRRVWDGIAAKINGITSWKRTGQEVQKRWNDFKRRTKEKLARVPHSTQGAGPAAEDAFSAEEETIFAILGPGVAAPGAGAGAEEPPAAPSSQPPPPSACPQRYVLSEDRREDRRADTSAHSKAGSSSPEPWARPSCTPQEGGCPRPKERESPPPSALQPVQLPRLALSPPPPAPPLPPPPPLAQVAPSPPSPPPPPRPPPTLSASDPSLDFLRAQQETANAIRELAGTLRQGLAKLSEALSALLPLLPGTPVDSLPPPLPPPPPPPPPPRPVLPPPAPKVEITPEPVSVVAAVVDGAVVAARGVIIAPRSEEGAPRPPPAPLPPHDSPPHKRRKGFPTRKRRGRWKSP |  | binds
